According to paper PMC6005420, “A low-complexity region in the YTH domain protein Mmi1 enhances RNA binding”:
Results are given in words; binding and its absence hold for the method and conditions named.

Molecular target: Mmi1 USR-YTH (residues 282-488) (Schizosaccharomyces pombe) (UniProt O74958)
Test: SEC-MALS; 100 ul of purified sample at 10 mg/ml on Superdex 75 increase 10/300gl, 0.5 ml/min; both purified

B1: Mmi1 USR-YTH (residues 282-488) (domain or fragment, UniProt O74958 282-488)
chain: GAYPEKSSYLLSNSSNDSASRKEKPKARASTPPPLNFSRASEHRNEKGERISMINPRVVLDENGISHRSRYFIMLCDNETAIAHAKKTSIWAVKKDSSKRISDAYKKASVYFIFVAQQTYNALGYAQVVSDLNSTELPFWSDSSHAGGVRIKWIKTCNLFSAEISEIVSHMDHGSEARDGMEMMYDEGSRLCTLINYAIMKRIGRDR
binding: no binding (tested: 10 mg/ml)
